Data taken from PubChem BioAssay AID504749, deposited by NCATS (2011).

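Malaria parasite (P. falciparum) lines kept in red blood cells; parasite DNA is measured by SYBR Green fluorescence after lysis, 72 h after compound addition.
Each compound was titrated across a series from about 0.000037 to 29 µM.
The number is the fitted AC50, the concentration giving a half-maximal change in signal; a lower value means higher potency, whether the curve shows a decrease or an increase.
Calls follow the curve class and fit quality: every row here is inconclusive, covering signal-raising curves and weak, poorly fitted, partial or highest-dose-only inhibition curves.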

Values are in µM.
All entries here are filed as inconclusive.
Only part of the assay is shown, chiefly results filed as inconclusive.
A potency from a partial, single-point or poor curve is only a rough figure.
The first word of each remark tells which way the curve ran; it can be opposite to the aim of the assay.

structure	setting	Potency (µM)	curve as filed
O=c1c(O)c(-c2ccc(O)c(O)c2)oc2cc(O)cc(O)c12	AA1029	11.22	inhibitor, single point
O=c1c(O)c(-c2ccc(O)c(O)c2)oc2cc(O)cc(O)c12	CP315	16.94	inhibitor, partial curve, poor fit
O=c1c(O)c(-c2ccc(O)c(O)c2)oc2cc(O)cc(O)c12	CP191	17.78	inhibitor, single point
O=c1c(O)c(-c2ccc(O)c(O)c2)oc2cc(O)cc(O)c12	CP203	16.94	inhibitor, single point
O=c1c(O)c(-c2ccc(O)c(O)c2)oc2cc(O)cc(O)c12	FAB9	11.22	inhibitor, single point
O=c1c(O)c(-c2ccc(O)c(O)c2)oc2cc(O)cc(O)c12	CP305	19.01	inhibitor, single point
O=c1c(O)c(-c2ccc(O)c(O)c2)oc2cc(O)cc(O)c12	CP252	17.78	inhibitor, single point
O=c1c(O)c(-c2ccc(O)c(O)c2)oc2cc(O)cc(O)c12	P93_24	11.22	inhibitor, single point
O=c1c(O)c(-c2ccc(O)c(O)c2)oc2cc(O)cc(O)c12	CP217	17.78	inhibitor, single point
O=c1c(O)c(-c2ccc(O)c(O)c2)oc2cc(O)cc(O)c12	CP265	17.78	inhibitor, single point
O=c1c(O)c(-c2ccc(O)c(O)c2)oc2cc(O)cc(O)c12	DFO2036	17.78	inhibitor, single point
CCN(CC)CCOc1ccc2nc(N(C)C)sc2c1	CP262	3.793	activator, partial curve, poor fit
CCN(CC)CCOc1ccc2nc(N(C)C)sc2c1	CP215	15.1	inhibitor, single point
CCN(CC)CCOc1ccc2nc(N(C)C)sc2c1	3D7	3.981	inhibitor, single point
Cc1cc(C2CCCCC2)n(O)c(=O)c1	CP262	5.103	inhibitor, single point
Cc1cc(C2CCCCC2)n(O)c(=O)c1	HB3	3.981	inhibitor, single point
Cc1cc(C2CCCCC2)n(O)c(=O)c1	CP194	5.726	inhibitor, single point
Cc1cc(C2CCCCC2)n(O)c(=O)c1	JCK	10	inhibitor, single point
Cc1cc(C2CCCCC2)n(O)c(=O)c1	CP247	7.08	inhibitor, single point
Cc1cc(C2CCCCC2)n(O)c(=O)c1	DIV17	7.208	inhibitor, single point
Cc1cc(C2CCCCC2)n(O)c(=O)c1	TAB109	6.31	inhibitor, single point
Cc1cc(C2CCCCC2)n(O)c(=O)c1	ECU	3.548	inhibitor, single point
Cc1cc(C2CCCCC2)n(O)c(=O)c1	CP185	7.08	inhibitor, single point
Cc1cc(C2CCCCC2)n(O)c(=O)c1	CP286	8.912	inhibitor, single point
Cc1cc(C2CCCCC2)n(O)c(=O)c1	CP238	7.943	inhibitor, single point
Cc1cc(C2CCCCC2)n(O)c(=O)c1	CP250	7.08	inhibitor, single point
Cc1cc(C2CCCCC2)n(O)c(=O)c1	CP291	5.726	inhibitor, single point
Cc1cc(C2CCCCC2)n(O)c(=O)c1	3D7	7.08	inhibitor, single point
Cc1cc(C2CCCCC2)n(O)c(=O)c1	CP201	8.087	inhibitor, single point
Cc1cc(C2CCCCC2)n(O)c(=O)c1	CP268	5.103	inhibitor, single point
Cc1cc(C2CCCCC2)n(O)c(=O)c1	CP260	10	inhibitor, single point
Cc1cc(C2CCCCC2)n(O)c(=O)c1	SC27B	6.31	inhibitor, single point
Cc1cc(C2CCCCC2)n(O)c(=O)c1	CP256	10	inhibitor, single point
Cc1cc(C2CCCCC2)n(O)c(=O)c1	CP265	7.08	inhibitor, single point
Cc1cc(C2CCCCC2)n(O)c(=O)c1	N140	8.912	inhibitor, single point
Cc1cc(C2CCCCC2)n(O)c(=O)c1	PAD	6.31	inhibitor, single point
Cc1cc(C2CCCCC2)n(O)c(=O)c1	C2A	7.08	inhibitor, single point
Cc1cc(C2CCCCC2)n(O)c(=O)c1	DIV30	5.103	inhibitor, single point
Cc1cc(C2CCCCC2)n(O)c(=O)c1	CP335	5.103	inhibitor, single point
Cc1cc(C2CCCCC2)n(O)c(=O)c1	ATS189	10	inhibitor, single point
Cc1cc(C2CCCCC2)n(O)c(=O)c1	DFO2036	6.31	inhibitor, single point
Cc1cc(C2CCCCC2)n(O)c(=O)c1	DIV14	6.424	inhibitor, single point
Cc1cc(C2CCCCC2)n(O)c(=O)c1	TAB113	8.912	inhibitor, single point
Cc1cc(C2CCCCC2)n(O)c(=O)c1	CP192	7.208	inhibitor, single point
Cc1cc(C2CCCCC2)n(O)c(=O)c1	AA1029	6.31	inhibitor, single point
Cc1cc(C2CCCCC2)n(O)c(=O)c1	CP237	10	inhibitor, single point
Cc1cc(C2CCCCC2)n(O)c(=O)c1	CP266	8.087	inhibitor, single point

Repeated from the top, 6 entries:

structure	setting	Potency (µM)	curve as filed
O=c1c(O)c(-c2ccc(O)c(O)c2)oc2cc(O)cc(O)c12	AA1029	11.22	inhibitor, single point
O=c1c(O)c(-c2ccc(O)c(O)c2)oc2cc(O)cc(O)c12	CP315	16.94	inhibitor, partial curve, poor fit
O=c1c(O)c(-c2ccc(O)c(O)c2)oc2cc(O)cc(O)c12	CP191	17.78	inhibitor, single point
O=c1c(O)c(-c2ccc(O)c(O)c2)oc2cc(O)cc(O)c12	CP203	16.94	inhibitor, single point
O=c1c(O)c(-c2ccc(O)c(O)c2)oc2cc(O)cc(O)c12	FAB9	11.22	inhibitor, single point
O=c1c(O)c(-c2ccc(O)c(O)c2)oc2cc(O)cc(O)c12	CP305	19.01	inhibitor, single point